{"source": "paper PMC6884511", "system": "TBX5 + MEF2C", "assay": "EMSA", "settings": "EMSA in 15-20 ul, 0.5 h at room temperature, salt and pH not given (as described previously, ref 28), label: end-labelled", "note": "Construct, isoform or probe ends are uncertain for at least one entry. A weaker result is weaker than the reference pair of the same experiment."}
{"sequence": "CACCTCCACACCCTGGAGCTATATTGAGAGGTGACAGTAAAC (double strand) [MYH6 promoter T-M-T probe]", "values": [{"measurement": "binding result", "setting": "increasing HDAC4", "value": "binds more weakly"}, {"measurement": "binding result", "setting": "no HDAC4", "value": "binds"}]}
